Test results from the supplement of paper PMC10849652.
This is one part of the list.

Chains of the proteins cited; added tags and fusions are not shown. Lines headed by an entry give the natural chain unless they say otherwise; changes in a name come on top.
UniProt Q5VTE0, whole entry, looked up: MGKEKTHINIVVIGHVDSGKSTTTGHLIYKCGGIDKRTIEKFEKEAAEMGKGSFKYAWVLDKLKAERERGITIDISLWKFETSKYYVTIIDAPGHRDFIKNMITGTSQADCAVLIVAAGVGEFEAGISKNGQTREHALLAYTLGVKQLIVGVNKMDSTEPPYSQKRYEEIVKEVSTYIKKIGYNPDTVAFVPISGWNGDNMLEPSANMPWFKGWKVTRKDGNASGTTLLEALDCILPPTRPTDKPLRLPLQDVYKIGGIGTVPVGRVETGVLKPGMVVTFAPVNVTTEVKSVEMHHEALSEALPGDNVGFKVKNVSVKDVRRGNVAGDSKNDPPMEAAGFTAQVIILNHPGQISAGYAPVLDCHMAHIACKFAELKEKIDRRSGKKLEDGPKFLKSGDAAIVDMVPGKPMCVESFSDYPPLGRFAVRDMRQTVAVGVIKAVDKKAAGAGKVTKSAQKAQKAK
UniProt O15372, whole entry, looked up: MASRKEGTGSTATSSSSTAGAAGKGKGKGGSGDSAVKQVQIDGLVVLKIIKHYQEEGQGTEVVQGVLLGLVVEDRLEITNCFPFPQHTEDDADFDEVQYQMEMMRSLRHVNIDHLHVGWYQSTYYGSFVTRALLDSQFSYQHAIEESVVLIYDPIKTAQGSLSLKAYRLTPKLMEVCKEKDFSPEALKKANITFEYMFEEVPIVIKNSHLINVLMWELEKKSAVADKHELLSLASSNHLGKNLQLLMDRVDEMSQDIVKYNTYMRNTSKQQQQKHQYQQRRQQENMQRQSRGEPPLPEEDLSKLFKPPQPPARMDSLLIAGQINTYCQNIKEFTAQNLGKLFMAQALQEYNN
UniProt Q9P2K8: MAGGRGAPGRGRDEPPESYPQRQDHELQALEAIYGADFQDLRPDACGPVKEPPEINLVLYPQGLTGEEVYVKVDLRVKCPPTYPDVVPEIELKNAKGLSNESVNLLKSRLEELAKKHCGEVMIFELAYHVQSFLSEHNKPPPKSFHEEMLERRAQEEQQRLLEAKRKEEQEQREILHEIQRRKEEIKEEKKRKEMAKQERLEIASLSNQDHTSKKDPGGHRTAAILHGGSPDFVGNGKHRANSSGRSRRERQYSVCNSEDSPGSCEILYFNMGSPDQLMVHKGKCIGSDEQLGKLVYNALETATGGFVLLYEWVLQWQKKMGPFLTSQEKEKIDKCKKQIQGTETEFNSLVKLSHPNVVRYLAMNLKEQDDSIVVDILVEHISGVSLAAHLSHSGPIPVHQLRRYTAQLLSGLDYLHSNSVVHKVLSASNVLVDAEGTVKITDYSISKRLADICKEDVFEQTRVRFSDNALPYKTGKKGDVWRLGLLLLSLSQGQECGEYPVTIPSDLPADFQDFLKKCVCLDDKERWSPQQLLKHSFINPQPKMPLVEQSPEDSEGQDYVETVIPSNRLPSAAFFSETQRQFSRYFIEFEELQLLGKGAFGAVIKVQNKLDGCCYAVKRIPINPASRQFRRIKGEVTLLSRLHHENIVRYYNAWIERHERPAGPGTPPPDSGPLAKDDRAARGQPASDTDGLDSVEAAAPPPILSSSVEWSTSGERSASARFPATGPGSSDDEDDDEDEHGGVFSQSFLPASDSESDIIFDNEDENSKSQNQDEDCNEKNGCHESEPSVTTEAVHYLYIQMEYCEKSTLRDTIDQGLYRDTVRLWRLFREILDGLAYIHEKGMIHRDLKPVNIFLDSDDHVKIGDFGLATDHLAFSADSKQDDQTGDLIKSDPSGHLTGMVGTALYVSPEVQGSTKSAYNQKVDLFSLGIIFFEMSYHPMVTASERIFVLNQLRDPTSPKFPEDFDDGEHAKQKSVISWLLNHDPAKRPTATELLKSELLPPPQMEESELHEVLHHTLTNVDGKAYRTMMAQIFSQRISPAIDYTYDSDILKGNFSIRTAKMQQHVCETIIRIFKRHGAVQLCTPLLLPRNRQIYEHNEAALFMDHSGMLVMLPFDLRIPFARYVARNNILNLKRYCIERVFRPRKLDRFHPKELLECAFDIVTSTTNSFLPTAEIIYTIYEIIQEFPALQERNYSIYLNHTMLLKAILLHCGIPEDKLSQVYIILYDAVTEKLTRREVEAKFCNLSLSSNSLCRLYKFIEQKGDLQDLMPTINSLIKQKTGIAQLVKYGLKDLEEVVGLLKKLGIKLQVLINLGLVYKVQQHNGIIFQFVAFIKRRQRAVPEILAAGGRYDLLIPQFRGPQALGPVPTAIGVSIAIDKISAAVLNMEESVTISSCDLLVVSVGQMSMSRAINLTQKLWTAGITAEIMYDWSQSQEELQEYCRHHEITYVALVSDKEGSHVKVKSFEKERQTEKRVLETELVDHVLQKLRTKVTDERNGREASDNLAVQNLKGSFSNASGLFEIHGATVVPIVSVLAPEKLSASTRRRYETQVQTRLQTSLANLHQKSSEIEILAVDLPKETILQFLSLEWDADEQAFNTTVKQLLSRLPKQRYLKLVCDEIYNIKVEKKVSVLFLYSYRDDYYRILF
UniProt Q9UBQ5, whole entry, looked up: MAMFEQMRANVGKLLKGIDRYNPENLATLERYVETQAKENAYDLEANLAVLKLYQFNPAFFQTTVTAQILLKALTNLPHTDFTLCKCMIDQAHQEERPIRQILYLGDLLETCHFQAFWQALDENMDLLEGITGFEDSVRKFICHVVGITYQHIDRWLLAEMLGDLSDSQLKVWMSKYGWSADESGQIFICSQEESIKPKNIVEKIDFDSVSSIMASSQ
UniProt P57772: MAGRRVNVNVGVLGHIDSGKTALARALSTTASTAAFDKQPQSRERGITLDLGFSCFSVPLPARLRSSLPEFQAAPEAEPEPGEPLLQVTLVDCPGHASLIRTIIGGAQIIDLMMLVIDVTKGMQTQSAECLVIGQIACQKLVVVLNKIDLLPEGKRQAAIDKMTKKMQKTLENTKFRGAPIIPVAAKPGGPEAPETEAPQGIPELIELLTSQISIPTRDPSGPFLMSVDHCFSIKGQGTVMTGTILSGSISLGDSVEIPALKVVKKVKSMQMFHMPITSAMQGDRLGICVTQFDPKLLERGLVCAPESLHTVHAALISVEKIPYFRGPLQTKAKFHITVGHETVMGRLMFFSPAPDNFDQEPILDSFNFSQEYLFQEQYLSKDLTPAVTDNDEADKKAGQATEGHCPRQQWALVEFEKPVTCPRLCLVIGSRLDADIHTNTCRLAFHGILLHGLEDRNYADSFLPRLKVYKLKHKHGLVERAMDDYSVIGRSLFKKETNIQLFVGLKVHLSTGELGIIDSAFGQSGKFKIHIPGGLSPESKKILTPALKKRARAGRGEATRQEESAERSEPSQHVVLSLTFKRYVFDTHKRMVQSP
UniProt Q9H4M9: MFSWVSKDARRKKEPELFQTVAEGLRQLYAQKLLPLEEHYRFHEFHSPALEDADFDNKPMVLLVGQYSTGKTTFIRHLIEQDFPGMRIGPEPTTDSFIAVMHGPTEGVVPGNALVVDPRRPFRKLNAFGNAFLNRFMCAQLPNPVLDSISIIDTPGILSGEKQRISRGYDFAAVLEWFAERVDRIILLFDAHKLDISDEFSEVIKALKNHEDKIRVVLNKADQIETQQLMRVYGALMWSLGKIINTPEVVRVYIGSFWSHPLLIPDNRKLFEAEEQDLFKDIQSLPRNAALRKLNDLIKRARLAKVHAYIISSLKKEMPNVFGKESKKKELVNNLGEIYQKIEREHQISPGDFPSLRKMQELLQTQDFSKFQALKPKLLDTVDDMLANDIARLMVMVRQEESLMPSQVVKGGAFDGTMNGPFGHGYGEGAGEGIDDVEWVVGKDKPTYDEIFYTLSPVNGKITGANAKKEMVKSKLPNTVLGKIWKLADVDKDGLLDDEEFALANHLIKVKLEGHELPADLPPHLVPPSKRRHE
UniProt P55199: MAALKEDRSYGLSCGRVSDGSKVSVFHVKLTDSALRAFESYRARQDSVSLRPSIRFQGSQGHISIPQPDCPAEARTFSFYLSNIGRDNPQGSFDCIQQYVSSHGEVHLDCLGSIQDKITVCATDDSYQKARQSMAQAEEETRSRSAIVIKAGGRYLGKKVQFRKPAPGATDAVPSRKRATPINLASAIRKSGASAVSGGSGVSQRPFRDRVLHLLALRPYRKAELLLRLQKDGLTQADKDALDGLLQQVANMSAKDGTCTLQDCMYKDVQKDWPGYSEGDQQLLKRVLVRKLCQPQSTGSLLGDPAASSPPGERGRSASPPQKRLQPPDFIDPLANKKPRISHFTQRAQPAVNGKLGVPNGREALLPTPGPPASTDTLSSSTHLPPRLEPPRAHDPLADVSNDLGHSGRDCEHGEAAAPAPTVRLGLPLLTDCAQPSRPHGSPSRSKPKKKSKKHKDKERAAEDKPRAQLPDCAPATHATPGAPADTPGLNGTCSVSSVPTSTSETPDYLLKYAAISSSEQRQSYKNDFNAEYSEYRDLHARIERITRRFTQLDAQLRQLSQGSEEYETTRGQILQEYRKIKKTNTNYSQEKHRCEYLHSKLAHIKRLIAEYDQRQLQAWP
UniProt Q0PNE2: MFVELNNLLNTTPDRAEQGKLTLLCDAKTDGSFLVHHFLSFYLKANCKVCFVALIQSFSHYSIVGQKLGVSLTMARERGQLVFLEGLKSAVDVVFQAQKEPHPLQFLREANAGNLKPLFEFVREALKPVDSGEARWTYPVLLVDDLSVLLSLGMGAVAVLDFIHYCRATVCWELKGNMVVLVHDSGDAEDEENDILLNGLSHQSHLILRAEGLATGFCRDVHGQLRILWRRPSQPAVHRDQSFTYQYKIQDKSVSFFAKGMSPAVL
UniProt Q9NRA8: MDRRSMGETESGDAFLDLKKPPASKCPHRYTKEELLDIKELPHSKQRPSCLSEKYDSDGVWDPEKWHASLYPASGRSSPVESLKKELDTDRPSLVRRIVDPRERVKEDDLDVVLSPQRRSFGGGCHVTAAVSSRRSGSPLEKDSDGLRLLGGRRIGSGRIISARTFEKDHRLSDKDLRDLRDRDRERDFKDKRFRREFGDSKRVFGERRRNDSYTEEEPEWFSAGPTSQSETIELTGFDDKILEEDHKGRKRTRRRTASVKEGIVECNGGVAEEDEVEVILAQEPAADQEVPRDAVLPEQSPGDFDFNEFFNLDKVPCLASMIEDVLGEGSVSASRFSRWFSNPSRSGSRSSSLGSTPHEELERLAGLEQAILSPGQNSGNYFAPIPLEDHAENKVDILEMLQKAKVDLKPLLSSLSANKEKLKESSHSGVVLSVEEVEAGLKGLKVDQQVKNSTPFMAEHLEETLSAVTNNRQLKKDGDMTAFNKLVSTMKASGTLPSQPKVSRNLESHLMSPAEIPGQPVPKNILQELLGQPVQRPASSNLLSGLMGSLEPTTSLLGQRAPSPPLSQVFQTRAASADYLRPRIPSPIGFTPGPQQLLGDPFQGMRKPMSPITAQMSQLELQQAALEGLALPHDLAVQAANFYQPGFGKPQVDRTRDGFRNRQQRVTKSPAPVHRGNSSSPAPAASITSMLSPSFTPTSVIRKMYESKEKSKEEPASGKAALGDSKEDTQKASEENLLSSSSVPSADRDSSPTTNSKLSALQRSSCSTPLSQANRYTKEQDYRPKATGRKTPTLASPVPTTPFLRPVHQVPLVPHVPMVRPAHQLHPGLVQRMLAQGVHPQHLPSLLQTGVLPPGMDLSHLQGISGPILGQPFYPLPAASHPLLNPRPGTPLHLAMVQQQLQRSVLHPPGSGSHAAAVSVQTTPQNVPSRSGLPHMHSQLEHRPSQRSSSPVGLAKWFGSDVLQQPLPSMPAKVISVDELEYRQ
UniProt Q32P44: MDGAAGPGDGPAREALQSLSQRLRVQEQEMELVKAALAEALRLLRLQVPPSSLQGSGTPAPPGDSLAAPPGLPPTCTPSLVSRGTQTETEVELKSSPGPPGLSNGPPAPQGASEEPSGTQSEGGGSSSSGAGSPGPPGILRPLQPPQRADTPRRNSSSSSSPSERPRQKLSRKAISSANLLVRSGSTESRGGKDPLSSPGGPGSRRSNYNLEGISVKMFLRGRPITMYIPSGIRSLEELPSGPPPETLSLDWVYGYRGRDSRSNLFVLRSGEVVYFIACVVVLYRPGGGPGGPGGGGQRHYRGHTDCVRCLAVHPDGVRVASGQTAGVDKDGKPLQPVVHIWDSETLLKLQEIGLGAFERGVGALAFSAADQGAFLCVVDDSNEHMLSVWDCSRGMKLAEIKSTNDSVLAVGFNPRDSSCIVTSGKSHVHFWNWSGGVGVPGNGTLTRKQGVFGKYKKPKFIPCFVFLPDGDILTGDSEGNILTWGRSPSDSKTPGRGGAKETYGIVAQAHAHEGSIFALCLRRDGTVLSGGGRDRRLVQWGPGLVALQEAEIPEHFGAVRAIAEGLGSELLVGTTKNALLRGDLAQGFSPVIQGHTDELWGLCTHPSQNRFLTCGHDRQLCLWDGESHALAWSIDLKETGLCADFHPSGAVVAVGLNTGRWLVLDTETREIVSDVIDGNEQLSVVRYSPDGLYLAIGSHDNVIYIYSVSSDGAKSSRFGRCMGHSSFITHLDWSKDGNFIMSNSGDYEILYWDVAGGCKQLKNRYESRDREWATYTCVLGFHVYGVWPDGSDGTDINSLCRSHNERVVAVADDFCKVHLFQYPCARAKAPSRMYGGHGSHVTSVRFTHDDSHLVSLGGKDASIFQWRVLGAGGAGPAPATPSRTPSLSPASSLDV

Experiments:
Assay in all cases: log2 fold change, soluble protein after heating vs DMSO (PISA); higher = thermal stabilisation; K562 cells, 10 uM, 30 min; active = over 0.2 and 3.5 SD of the protein, either way, in both replicates (recomputed)
erlotinib = compound: C#Cc1cccc(Nc2ncnc3cc(OCCOC)c(OCCOC)cc23)c1 [erlotinib]
Procedure, shortened: (§1)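 K562 cells at 2×10^6 cells/mL were given 10 μM compound for 30 min. Aliquots then went through 3 min of heating across 48°C-58°C, were pooled, and were extracted in PBS with 0.5% NP-40 at 4°C, and the supernatant after 21,000xg for 90 min was quantified by TMTpro 16plex LC-MS/MS with channel sums equalised. Thermal stability relative to control samples, from duplicates, is given as log2 fold change.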

[1] = compound: C/C(=N\NC(=O)C1=CC(=CC=C1)S(=O)(=O)N2CCOCC2)/C3=C(C=CC(=C3)Cl)O
Procedure, shortened: as §1

[2] = compound: C1=CC(=C(C=C1Cl)C2=NC3=NC=CN=C3C(=N2)NC4=CC=NC=C4)F
Procedure, shortened: as §1

[3] = compound: C1=CC(=CC=C1C2=NC3=C(N2)C=C(C=C3)C(=O)N)OC4=CC=C(C=C4)Cl
Procedure, shortened: as §1

[4] = compound: C1=CC2=C(C=CC(=C2)/C=C\3/C(=O)NC(=NCC4=CC=CS4)S3)N=C1
Procedure, shortened: as §1

[5] = compound: C1=CC2=NC=CN=C2C=C1/C=C/3\C(=O)NC(=O)S3
Procedure, shortened: as §1

[6] = compound: C1=CC=C(C=C1)C2=NC(=C(N2)C3=CC=NC=C3)C4=CC(=C(C=C4)Cl)O
Procedure, shortened: as §1

[7] = compound: C1=CC=C2C(=C1)C3=NNC4=CC=CC(=C43)C2=O
Procedure, shortened: as §1

[8] = compound: C1CCN(C1)C(=O)NC2=CC=CC(=C2)NC3=NC=C(C(=N3)NCCC4=CN=CN4)Br
Procedure, shortened: as §1

[9] = compound: C1CN(CCC1(CC2=CC=C(C=C2)Cl)N)C3=NC=NC4=C3C=CN4
Procedure, shortened: as §1

Measured: log2 fold change

EEF1A1P5 (UniProt Q5VTE0)
inactive: erlotinib 0.027 | [1] -0.009 | [2] 0.074 | [3] 0.005 | [4] 0.009 | [5] 0.004 | [6] 0.038 | [7] 0.005 | [8] 0.109 | [9] 0.082

EHD4 (UniProt Q9H223)
inactive: erlotinib 0.063 | [1] 0.005 | [2] 0.049 | [3] 0.008 | [4] 0.009 | [5] 0.011 | [6] 0.008 | [7] 0.029 | [8] 0 | [9] 0.013

EIF4E isoform 2 (UniProt P06730)
inactive: erlotinib 0.084 | [1] -0.035 | [2] 0.056 | [3] -0.073 | [4] 0.01 | [5] 0.168 | [6] 0.074 | [7] 0.152 | [8] 0.181 | [9] 0.146

EIF3H (UniProt O15372)
inactive: erlotinib -0.041 | [1] 0.05 | [2] -0.04 | [3] -0.007 | [4] -0.024 | [5] 0.058 | [6] 0.006 | [7] -0.021 | [8] 0.015 | [9] -0.068

EIF3L (UniProt Q9Y262)
inactive: erlotinib -0.031 | [1] 0.033 | [2] 0.172 | [3] 0.021 | [4] -0.003 | [5] 0.024 | [6] 0.009 | [7] 0.019 | [8] -0.001 | [9] 0

EIF2AK4 (UniProt Q9P2K8)
inactive: erlotinib 0.015 | [1] -0.041 | [2] -0.061 | [3] -0.063 | [4] 0.017 | [5] 0.001 | [6] -0.015 | [7] -0.202 | [8] -0.019 | [9] 0

EIF2D (UniProt P41214)
inactive: erlotinib 0.189 | [1] 0.068 | [2] -0.065 | [3] 0 | [4] 0.152 | [5] -0.022 | [6] 0.015 | [7] 0.028 | [8] -0.048 | [9] -0.198

EIF3K (UniProt Q9UBQ5)
inactive: erlotinib 0.021 | [1] 0.043 | [2] 0.117 | [3] 0.012 | [4] 0.042 | [5] 0.05 | [6] 0.08 | [7] -0.023 | [8] -0.005 | [9] -0.048

EMC7 (UniProt Q9NPA0)
inactive: erlotinib 0.02 | [1] 0.032 | [2] 0.009 | [3] 0.008 | [4] 0.062 | [5] 0.011 | [6] -0.013 | [7] 0.006 | [8] -0.007 | [9] -0.009

EEFSEC (UniProt P57772)
inactive: erlotinib 0.049 | [1] -0.066 | [2] -0.03 | [3] -0.029 | [4] 0.093 | [5] -0.08 | [6] 0.048 | [7] 0.028 | [8] 0.025 | [9] 0.03

EHHADH (UniProt Q08426)
inactive: erlotinib -0.013 | [1] -0.005 | [2] 0.021 | [3] 0.115 | [4] 0.03 | [5] -0.005 | [6] -0.007 | [7] 0.044 | [8] -0.012 | [9] 0.016

EMC6 (UniProt Q9BV81)
inactive: erlotinib 0.146 | [1] 0.069 | [2] 0.04 | [3] -0.07 | [4] 0.049 | [5] -0.007 | [6] -0.072 | [7] -0.027 | [8] -0.092 | [9] 0.036

EMC1 (UniProt Q8N766)
inactive: erlotinib -0.002 | [1] 0.052 | [2] 0.013 | [3] -0.024 | [4] -0.028 | [5] 0.045 | [6] 0.021 | [7] 0.019 | [8] -0.019 | [9] 0.026

EMC4 (UniProt Q5J8M3)
inactive: erlotinib 0.016 | [1] 0.038 | [2] 0.035 | [3] 0.028 | [4] 0.022 | [5] 0.095 | [6] 0.061 | [7] -0.02 | [8] -0.065 | [9] -0.008

EHD1 (UniProt Q9H4M9)
inactive: erlotinib 0.038 | [1] 0.013 | [2] 0.047 | [3] -0.002 | [4] 0.03 | [5] 0.002 | [6] 0.016 | [7] 0.009 | [8] -0.021 | [9] 0.019

EIF2S1 (UniProt P05198)
inactive: erlotinib -0.001 | [1] -0.039 | [2] -0.141 | [3] -0.004 | [4] -0.035 | [5] -0.011 | [6] -0.052 | [7] 0.008 | [8] -0.026 | [9] -0.052

EIF4H (UniProt Q15056)
inactive: erlotinib 0.104 | [1] 0.008 | [2] 0.009 | [3] 0.029 | [4] -0.015 | [5] 0.019 | [6] -0.003 | [7] 0.031 | [8] 0.005 | [9] 0.033

EFCAB14 (UniProt O75071)
inactive: erlotinib 0.051 | [1] -0.053 | [2] 0.013 | [3] 0.024 | [4] -0.049 | [5] 0.033 | [6] 0.159 | [7] -0.119 | [8] 0.044 | [9] -0.032

ELL (UniProt P55199)
inactive: erlotinib 0.033 | [1] 0.116 | [2] 0.064 | [3] -0.06 | [4] 0.093 | [5] 0.124 | [6] -0.089 | [7] -0.177 | [8] -0.223 | [9] -0.075

ELP6 (UniProt Q0PNE2)
inactive: erlotinib -0.005 | [1] 0.007 | [2] -0.012 | [3] 0.012 | [4] 0.017 | [5] 0.014 | [6] -0.031 | [7] -0.013 | [8] -0.034 | [9] 0.041

2 neighbouring records from above, quoted:
EIF4E isoform 2 (UniProt P06730)
inactive: erlotinib 0.084 | [1] -0.035 | [2] 0.056 | [3] -0.073 | [4] 0.01 | [5] 0.168 | [6] 0.074 | [7] 0.152 | [8] 0.181 | [9] 0.146

EIF3H (UniProt O15372)
inactive: erlotinib -0.041 | [1] 0.05 | [2] -0.04 | [3] -0.007 | [4] -0.024 | [5] 0.058 | [6] 0.006 | [7] -0.021 | [8] 0.015 | [9] -0.068

The list goes on:

EHBP1L1 (UniProt Q8N3D4)
inactive: erlotinib -0.005 | [1] 0.088 | [2] 0.06 | [3] -0.005 | [4] 0.057 | [5] 0.026 | [6] -0.013 | [7] -0.03 | [8] -0.1 | [9] -0.116

EIF1 (UniProt P41567)
inactive: erlotinib -0.09 | [1] -0.027 | [2] 0.055 | [3] 0.021 | [4] -0.073 | [5] 0.028 | [6] -0.03 | [7] 0.001 | [8] 0.049 | [9] 0.024

ELOVL5 isoform 2 (UniProt Q9NYP7)
inactive: erlotinib 0.03 | [1] 0.117 | [2] -0.087 | [3] -0.005 | [4] 0.084 | [5] 0.122 | [6] 0.068 | [7] -0.068 | [8] 0.031 | [9] 0.008

EI24 (UniProt O14681)
inactive: erlotinib 0.009 | [1] 0.014 | [2] 0.025 | [3] 0.042 | [4] 0.049 | [5] 0.115 | [6] 0.171 | [7] 0.024 | [8] -0.071 | [9] 0.066

EP300 (UniProt Q09472)
inactive: erlotinib 0.019 | [1] 0.017 | [2] 0.001 | [3] 0.047 | [4] 0.076 | [5] 0.041 | [6] -0.062 | [7] -0.026 | [8] -0.036 | [9] 0.068

EIF5A isoform 2 (UniProt P63241)
inactive: erlotinib -0.001 | [1] 0.116 | [2] 0.074 | [3] -0.033 | [4] 0.024 | [5] 0.027 | [6] 0.089 | [7] 0.033 | [8] -0.049 | [9] -0.016

EIF4ENIF1 isoform 3 (UniProt Q9NRA8)
inactive: erlotinib 0.051 | [1] 0.061 | [2] 0.092 | [3] 0.01 | [4] -0.015 | [5] 0 | [6] 0.082 | [7] -0.017 | [8] -0.035 | [9] 0.009

ENGASE (UniProt Q8NFI3)
inactive: erlotinib 0.031 | [1] 0.034 | [2] 0.017 | [3] 0.017 | [4] 0.072 | [5] 0.088 | [6] -0.034 | [7] 0.057 | [8] -0.01 | [9] 0.002

EIF2AK1 (UniProt Q9BQI3)
inactive: erlotinib -0.002 | [1] 0.006 | [2] -0.042 | [3] 0 | [4] -0.029 | [5] -0.114 | [6] -0.029 | [7] 0.021 | [8] -0.007 | [9] 0.012

EML3 isoform 2 (UniProt Q32P44)
inactive: erlotinib 0.059 | [1] -0.089 | [2] -0.251 | [3] -0.002 | [4] -0.04 | [5] -0.044 | [6] 0.061 | [7] -0.055 | [8] 0.004 | [9] -0.101
